Out of some 360,000 compounds screened, about 10,000 (2.8%) were called active. The shares of active, inactive and inconclusive entries below differ from those in the screen. The call rests on the fitted dose curve; in most records, active means well fitted inhibition curve with a large enough effect; inconclusive means small, poorly fitted or top-dose-only effect; inactive means flat fitted curve, though single readings scatter. Where the call is inconclusive, the potency comes from a doubtful curve fit.
Molecular target: Serine/threonine-protein kinase PLK1 (Homo sapiens) (UniProt P53350)
Assay: qHTS for Inhibitors of PLK1-PDB (polo-like kinase 1 - polo-box domain): Primary Screen; further: nearly all actives have a fitted effect of over 65% in size; on max response, negative = inhibition: series mostly up to about 57 µM
Conditions: Plk1 PBD binding of FITC phosphopeptide, fluorescence polarization
On the % scale 0 is the no-effect control and ±100 the full control effect; potency means the concentration at half of the fitted maximal effect.

The chains behind the UniProt entries cited, without tags or fusion partners.
UniProt P53350, whole entry, looked up: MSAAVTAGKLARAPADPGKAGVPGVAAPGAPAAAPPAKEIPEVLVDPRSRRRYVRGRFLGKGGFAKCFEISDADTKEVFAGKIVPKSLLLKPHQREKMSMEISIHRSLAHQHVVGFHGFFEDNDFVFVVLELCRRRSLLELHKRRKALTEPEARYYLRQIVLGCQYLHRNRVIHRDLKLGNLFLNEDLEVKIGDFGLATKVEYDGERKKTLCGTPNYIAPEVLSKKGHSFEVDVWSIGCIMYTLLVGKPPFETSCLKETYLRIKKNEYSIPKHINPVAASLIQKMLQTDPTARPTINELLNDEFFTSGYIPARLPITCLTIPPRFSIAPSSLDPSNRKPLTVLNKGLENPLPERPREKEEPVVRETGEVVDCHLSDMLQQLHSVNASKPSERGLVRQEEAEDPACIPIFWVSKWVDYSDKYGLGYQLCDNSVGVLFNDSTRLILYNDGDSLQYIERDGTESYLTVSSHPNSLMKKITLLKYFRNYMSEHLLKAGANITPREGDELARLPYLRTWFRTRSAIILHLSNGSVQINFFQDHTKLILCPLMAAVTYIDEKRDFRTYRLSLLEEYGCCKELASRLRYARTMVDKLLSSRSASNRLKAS

**Q.** For `CC1CCc2sc(NC(=S)NC(=O)c3ccccc3)c(C#N)c2C1` (stereo not given), which Potency is on record?
**A.** inconclusive: 16.8 µM [inhibitor, partial curve, poor fit]

**Q.** How did the Potency turn out when `CN1CCN(C(c2ccc(F)cc2)c2ccc3cccnc3c2O)CC1` (stereo not given) was run?
**A.** inconclusive: 21.2 µM [inhibitor, partial curve]

**Q.** For `Cc1ccsc1/C=N/n1c(-c2ccccn2)n[nH]c1=S`, which max response, negative = inhibition is on record?
**A.** inactive: -9.02%

**Q.** How did the max response, negative = inhibition turn out when `CC(C)C(=O)Nc1cccc(COc2cccc(CN(Cc3ccccc3)C(=O)OC(C)(C)C)c2)c1` was run?
**A.** inactive: -4.92%

**Q.** With `CCOC(=O)C1=C(C)OC(=CC=Cc2ccccc2)C1=O` as the compound, how does the Potency read?
**A.** inconclusive: 21.2 µM [inhibitor, partial curve]

**Q.** For `O=C(Nc1ccccc1)Oc1ccc[nH]c1=O`, which Potency is on record?
**A.** active: 15 µM

**Q.** `CC/C(=N\Nc1ccc([N+](=O)[O-])cc1)c1ccccc1` was tested. Which Potency did it give?
**A.** active: 16.8 µM

**Q.** For `CC(C)CC1(C(=O)NCc2cc(F)cc(C(F)(F)F)c2)C=CCN1C(=O)c1ccccc1` (stereo not given), which max response, negative = inhibition is on record?
**A.** inactive: -14.5%

**Q.** Which max response, negative = inhibition does the source give for `Cc1occc1C(=O)N=Nc1c(O)n(C)c2ccccc12` here?
**A.** inactive: -11.9%

**Q.** Which Potency does the source give for `CCOC(=O)/C(CCC[N+](C)(CC)CC)=N\O` here?
**A.** inconclusive: 37.7 µM [inhibitor, single point]

**Q.** How did the Potency turn out when `Cc1cccc(NC(=S)N(Cc2cccc(Br)c2)CC2CCC(C(=O)O)CC2)c1` (stereo not given) was run?
**A.** inconclusive: 29.9 µM [inhibitor, partial curve]

**Q.** For `CCOC(=O)C1CCN(C(=O)c2ccc(SC)cc2OC)CC1`, which Potency is on record?
**A.** active: 29.9 µM

**Q.** `CC(C)Oc1ccc(CNC(=O)CCC(=O)N2CC(C)Sc3ccccc32)cc1` (stereo not given) was tested. Which Potency did it give?
**A.** inconclusive: 23.8 µM [inhibitor, partial curve]

**Q.** For `COc1ccc(NC(=O)COC(=O)CNC(=O)c2cccs2)cc1Cl`, which max response, negative = inhibition is on record?
**A.** inactive: 2.46%

**Q.** `O=C(/C=C/c1ccccc1Cl)Nc1cccc(S(=O)(=O)NC2=NCCCCC2)c1` was tested. Which max response, negative = inhibition did it give?
**A.** inactive: -8.17%

**Q.** For `COc1ccc(C(=O)C2CCCN(C(=O)c3cccnc3OC)C2)cc1F` (stereo not given), which Potency is on record?
**A.** inconclusive: 23.8 µM [inhibitor, partial curve]

**Q.** For `COc1ccc(C(=O)NC2CCCCCCC2)cc1OC`, which max response, negative = inhibition is on record?
**A.** inactive: -16.6%

**Q.** `COc1ccc(/C(C)=N\NC(=O)CSc2nnc(C)s2)cc1` was tested. Which Potency did it give?
**A.** inconclusive: 42.3 µM [inhibitor, partial curve, poor fit]

**Q.** With `COc1cc(CNc2ccc3[nH]c(=O)[nH]c3c2)cc(Cl)c1OCC(=O)NC(C)(C)C` as the compound, how does the Potency read?
**A.** inconclusive: 26.7 µM [inhibitor, partial curve]

**Q.** Which Potency does the source give for `Cc1oc(-c2ccccc2F)nc1CS(=O)CC(=O)NCc1cccs1` (stereo not given) here?
**A.** inconclusive: 15 µM [inhibitor, partial curve]

— PubChem BioAssay AID720504 (National Center for Advancing Translational Sciences (NCATS), 2013)
